PubChem BioAssay AID1259354 (Paczesny and Yang Labs, IUPUI and University of Michigan, 2018)
The campaign covered roughly 78,000 compounds. About 1,800 (2.3%) were called active. The shares of active, inactive and inconclusive entries below differ from those in the screen. No stated cut-off is given here; in the data, active means inhibition above about 30%; inconclusive means mostly about 10% to 28%; inactive means weaker than that.

By UniProt entry, the sequences of proteins in these tests, tags left out. Where a name states a change or a piece, a line headed by the entry shows the natural chain unless it says otherwise.
UniProt Q01638: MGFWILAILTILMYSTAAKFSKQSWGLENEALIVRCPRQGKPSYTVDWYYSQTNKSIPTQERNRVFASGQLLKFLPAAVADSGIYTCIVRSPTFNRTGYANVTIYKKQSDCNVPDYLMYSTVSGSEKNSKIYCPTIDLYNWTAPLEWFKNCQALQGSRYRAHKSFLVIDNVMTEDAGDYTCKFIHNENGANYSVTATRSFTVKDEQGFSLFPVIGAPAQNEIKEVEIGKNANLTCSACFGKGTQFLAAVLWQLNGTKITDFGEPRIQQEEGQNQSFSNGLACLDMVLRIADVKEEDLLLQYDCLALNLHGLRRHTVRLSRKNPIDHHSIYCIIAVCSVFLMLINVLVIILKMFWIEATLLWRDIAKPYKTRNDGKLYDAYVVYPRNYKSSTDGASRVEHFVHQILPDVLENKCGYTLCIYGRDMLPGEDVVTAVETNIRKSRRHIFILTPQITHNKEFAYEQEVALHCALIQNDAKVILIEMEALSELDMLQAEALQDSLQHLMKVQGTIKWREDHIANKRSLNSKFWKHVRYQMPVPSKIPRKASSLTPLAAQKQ

Molecular target: Interleukin-1 receptor-like 1 (Homo sapiens) (UniProt Q01638)
Assay: blocks human ST2 binding to IL-33, primary screen, biochemical, AlphaLISA (AID 1259354)
Conditions: AlphaLISA ST2-Fc/biotin-IL-33 interaction, 1 h; at 17 µM, active compounds read high

| SMILES | inhibition |
| --- | --- |
| COCC(=O)N1CCCN(Cc2ccccc2-c2ccccc2)CC1 | inconclusive: 15% |
| CC(C)Cc1ccc(S(=O)(=O)NC2CCCCCC2)cc1 | inactive |
| N#Cc1cccc(NC(=O)N[C@H]2[C@H](O)[C@@H](Sc3ccccc3)[C@@H]3OC[C@H]2O3)c1 | inconclusive: 11% |
| COc1cc(NC(=O)c2c(-c3ccccc3)noc2C)c(OC)cc1Cl | inactive |
| CN(C)CCCn1c(-c2ccc([N+](=O)[O-])cc2)csc1=Nc1ccccc1 | active: 51% |
| N#Cc1cccc(NC(=S)N[C@H]2CO[C@H]3[C@@H]2OC[C@@H]3n2cc(COc3ccccc3)nn2)c1 | inactive |
| Cc1cccc(CSc2nc3n(n2)C(c2cccs2)C2=C(CCCC2=O)N3)c1 (configuration not stated) | inactive |
| CCOC(=O)c1c(NC(=O)COc2ccccc2Cl)sc2c1CCC(C)C2 (configuration not stated) | inconclusive: 10% |
| CC1(C(=O)NC2CCCC2)CCC(=O)N1Cc1ccco1 (configuration not stated) | inactive |
| O=C(c1ccc2ccccc2c1)N1CCN=C1SCc1cccnc1 | inconclusive: 11% |
| CCCCN(C)S(=O)(=O)c1ccc(C(=O)Nc2nnc(-c3cccc(OC)c3)o2)cc1 | inactive |
| Cc1ccc(Sc2c(C)nn(S(=O)(=O)c3ccccc3[N+](=O)[O-])c2C)cc1 | inconclusive: 18% |
| CCOc1ccc(S(=O)(=O)Nc2ccc(OC(F)(F)F)cc2)c2cccnc12 | inactive |
| Cc1ccc(CN2C(=O)CCC2C(=O)NCc2cccnc2)cc1 (configuration not stated) | inconclusive: 10% |
| O=C(NCCC1=CCCCC1)Nc1ccc2nsnc2c1 | inconclusive: 17% |
| CNS(=O)(=O)c1ccc(CN2CCCC2c2ccc(F)cc2)cc1 (configuration not stated) | inconclusive: 10% |
| CC(C)c1ccc(Nc2nnc(C(C)(C)C)c(=O)[nH]2)cc1 | inactive |
| Cc1nccn1CCN(C)C(=O)c1ccccc1C1CCNC1 (configuration not stated) | inconclusive: 24% |
| C1=CC(Cc2n[nH]c(Cc3ccccc3)n2)CC1 (configuration not stated) | inconclusive: 12% |

| SMILES | inhibition |
| --- | --- |
| OC[C@@H]1O[C@H](CNC2CCOCC2)[C@H](N2CCN(c3ccc(F)cc3)CC2)[C@@H]1O | inconclusive: 11% |
| O=C(O)c1ccccc1C(=O)N1Cc2[nH]cnc2C[C@H]1c1nc(-c2ccncc2)no1 | inconclusive: 16% |
| COc1ccc(-n2ncc3c(N4CCN(c5cccc(C)c5)C(C)C4)ncnc32)cc1 (configuration not stated) | inconclusive: 21% |
| C=CCN(Cc1nc(-c2ccccc2)no1)C(=O)CC1CNCCO1 (configuration not stated) | inconclusive: 10% |
| Cc1c(C(=O)NCCSC2CCCCC2)cccc1[N+](=O)[O-] | inconclusive: 13% |
| CC1CCC(NC(=O)c2cc(=O)[nH]c3ccc(S(=O)(=O)N4CCCCCC4)cc23)CC1 (configuration not stated) | inactive |
| c1ccc(CN2CCCC3(CCCN(Cc4cc5n(n4)CCNC5)C3)C2)cc1 (configuration not stated) | inconclusive: 14% |
| CCOC(=O)c1nn(Cc2ccncc2)c2c1CN(C(=O)c1cccs1)CC2 | inconclusive: 22% |
| COC(=O)C1C(=O)C2=C(CC1C)NC(C)=C(C(=O)OC1CCCCC1)C2c1cccc(Cl)c1 (configuration not stated) | inactive |
| COc1c(C)cc(C(=O)N2CCN(c3ncccn3)CC2C(=O)O)cc1C (configuration not stated) | inconclusive: 18% |
| O=C(Nc1cc(Cl)ccc1O)c1cc(-c2ccc(Cl)cc2)on1 | inconclusive: 23% |
| Cc1ccc(Cl)cc1NS(=O)(=O)c1cccc2c1C(=O)c1ccccc1C2=O | active: 44% |
| CN(C(=O)c1ccco1)C(Cc1ccc(F)cc1F)C1CCN(Cc2ccc3c(c2)OCO3)CC1 (configuration not stated) | inconclusive: 27% |
| N#C/C(=C\c1ccccc1F)c1nc2ccccc2[nH]1 | inconclusive: 24% |
| Cc1cccc(NC(c2ccc(Br)cc2)c2ccc3cccnc3c2O)n1 (configuration not stated) | inconclusive: 22% |
| O=C(Nc1cc(Cl)cc(Cl)c1)c1ccc([N+](=O)[O-])cc1 | inactive |
| c1ccc(-n2cc(C3NCCc4[nH]cnc43)c(-c3ccncc3)n2)cc1 (configuration not stated) | inconclusive: 21% |
| Cc1cc(C(=O)N(C)Cc2ccc3c(c2)OCO3)n[nH]1 | inconclusive: 11% |
| CCCC12CN3CC(C)(CN(C1)C3c1ccc(Br)cc1)C2=O (configuration not stated) | inconclusive: 10% |

2 of these compounds in another layout:
SMILES | inhibition
Cc1c(C(=O)NCCSC2CCCCC2)cccc1[N+](=O)[O-] | inconclusive: 13%
Cc1cc(C(=O)N(C)Cc2ccc3c(c2)OCO3)n[nH]1 | inconclusive: 11%

(next part)

| SMILES | inhibition |
| --- | --- |
| O=c1c(-c2ccc(Cl)cc2Cl)coc2cc(O)ccc12 | inconclusive: 15% |
| C=CCNc1ccccc1C(=O)N1CCC(Nc2ncccn2)CC1 | inconclusive: 16% |
| CC1CCCC(C)N1CCNC(=O)c1ccc2c(c1)NC(=O)C(N1CCOCC1)S2 (configuration not stated) | inconclusive: 11% |
| O=C(CCc1nc2ccccc2[nH]1)NCC1(O)CCNC1 (configuration not stated) | inconclusive: 16% |
| O=C(Nc1ccc([N+](=O)[O-])cc1Cl)c1cc(I)ccc1Cl | active: 31% |
| COc1cc(-c2nc(C(N)=O)cs2)cc(OC)c1OC | inactive |
| COCCNC(=O)C[C@@H]1C[C@@H](C(C)C)[C@H](CNC(=O)c2cccc(F)c2)C=C1C | inconclusive: 10% |
| Cc1ccc(-c2nc3ccccn3c2Nc2ccccc2C)o1 | inconclusive: 19% |
| c1ccc(-n2ncc3c(NCc4cccnc4)ncnc32)cc1 | inconclusive: 16% |
| CCOC(=O)c1c(NC(=O)c2cccc(Br)c2)sc(C(C)=O)c1C | inactive |
| CC(=O)N[C@@H]1C[C@H](CC(C)C)O[C@H](c2ccc(Oc3ncccn3)cc2)C1 | inconclusive: 18% |
| O=C(NC[C@H]1O[C@@H](CO)[C@@H](O)[C@H]1N1CCc2ccccc2C1)Nc1cccc(Cl)c1 | inconclusive: 10% |
| COc1ccc(OC)c(NC(=O)c2c(N)sc3c2CCC3)c1 | inconclusive: 15% |
| COC(=O)C1=C[C@@H](O)[C@@H](O)[C@H](O[C@@H]2O[C@H](COC(=O)/C=C/c3ccccc3)[C@@H](O)[C@H](O)[C@H]2O)C1 | inconclusive: 11% |
| COc1ccc(-c2noc([C@@H]3C[C@H](NCc4ccc(C)cc4)CN3C)n2)cc1 | inconclusive: 13% |
| CC1CC(C)CN(CC(=O)N2CCCc3c2c(=O)oc2ccc(O)cc32)C1 (configuration not stated) | inactive |
| COc1ccc(C(=O)N2Cc3[nH]cnc3C[C@H]2c2nc(-c3ccc(OC)cc3)no2)cc1 | inactive |
| COc1ccc(C)cc1NC(=O)Cn1ccnc1-c1nccn1C | inconclusive: 11% |
| Cc1ccc(S(=O)(=O)NC[C@H]2O[C@@H](CC(=O)N3CCc4ccccc43)[C@H](O)[C@@H]2O)cc1 | inconclusive: 18% |

A draw from above in order of count of non-hydrogen atoms, falling:

| SMILES | inhibition |
| --- | --- |
| COC(=O)C1=C[C@@H](O)[C@@H](O)[C@H](O[C@@H]2O[C@H](COC(=O)/C=C/c3ccccc3)[C@@H](O)[C@H](O)[C@H]2O)C1 | inconclusive: 11% |
| COc1ccc(C(=O)N2Cc3[nH]cnc3C[C@H]2c2nc(-c3ccc(OC)cc3)no2)cc1 | inactive |
| Cc1ccc(S(=O)(=O)NC[C@H]2O[C@@H](CC(=O)N3CCc4ccccc43)[C@H](O)[C@@H]2O)cc1 | inconclusive: 18% |
| CC1CCCC(C)N1CCNC(=O)c1ccc2c(c1)NC(=O)C(N1CCOCC1)S2 (configuration not stated) | inconclusive: 11% |
| COCCNC(=O)C[C@@H]1C[C@@H](C(C)C)[C@H](CNC(=O)c2cccc(F)c2)C=C1C | inconclusive: 10% |
| COc1ccc(-c2noc([C@@H]3C[C@H](NCc4ccc(C)cc4)CN3C)n2)cc1 | inconclusive: 13% |
| CC1CC(C)CN(CC(=O)N2CCCc3c2c(=O)oc2ccc(O)cc32)C1 (configuration not stated) | inactive |
| C=CCNc1ccccc1C(=O)N1CCC(Nc2ncccn2)CC1 | inconclusive: 16% |
| COc1ccc(C)cc1NC(=O)Cn1ccnc1-c1nccn1C | inconclusive: 11% |
| Cc1ccc(-c2nc3ccccn3c2Nc2ccccc2C)o1 | inconclusive: 19% |
| COc1ccc(OC)c(NC(=O)c2c(N)sc3c2CCC3)c1 | inconclusive: 15% |
| O=C(Nc1ccc([N+](=O)[O-])cc1Cl)c1cc(I)ccc1Cl | active: 31% |
| O=c1c(-c2ccc(Cl)cc2Cl)coc2cc(O)ccc12 | inconclusive: 15% |
